Data as given in article PMC9413144, “Similar 5F-APINACA Metabolism between CD-1 Mouse and Human Liver Microsomes Involves Different P450 Cytochromes” (Metabolites, 2022).

What was measured:
[1] = test system: pooled human liver microsomes (HLM150); assay: Steady-state kinetics for 5F-APINACA metabolism by pooled human liver microsomes; type: in vitro ADME
Procedure: (§1) The in vitro 5F-APINACA analyses relied on reactions with human liver microsomes 150 (HLM150) as a model for the average adult human liver and CD-1 mouse liver microsomes as the standard for SCB studies. In a 96-half-well microplate, reaction conditions included human or mouse liver microsomes in 100 mM potassium phosphate buffer pH 7.4, 0.1% methanol (co-solvent), and 5F-APINACA concentrations ranging from 0 to 250 µM. The microplates were preincubated for 15 min at 37 °C with shaking at 350 rpm using a BMG Labtech THERMOstar incubator (Ortenberg, Germany). The addition of an NADPH-regenerating system (4 U/mL glucose-6-phosphate dehydrogenase, 12 mM glucose 6-phosphate, 12 mM MgCl2, 4 mM NADP^+) initiated the reaction. Reactions were quenched by adding an equal volume of ice-cold acetonitrile containing an internal standard (2 μM acenocoumarol final). Samples were chilled on ice for 10 min to optimize precipitation of proteins in phosphate buffer. […] Standards for metabolite quantifications were prepared with human or mouse liver microsomes in 100 mM potassium phosphate buffer pH 7.4, 0.1% methanol (co-solvent), and 5OH-APINACA concentrations ranging from 0 to 15 µM. […] The composition of reactions was determined by liquid chromatographic analysis involving detection of analytes via UV/visible absorbance and mass spectroscopy (Section 2.5). […]

[2] = test system: CD-1 mouse liver microsomes; assay: Steady-state kinetics for 5F-APINACA metabolism by CD-1 mouse liver microsomes; type: in vitro ADME
Procedure: as §1

[3] = Combined adamantyl hydroxylation pathway (5F-APINACA-OH + 5F-APINACA-(OH)2 rates combined)
[4] = formation of the metabolite from 5F-APINACA, 0.1 mg/mL protein, traditional kinetic models

## N-(1-adamantyl)-1-(5-pentyl)-1H-indazole-3-carboxamide [5F-APINACA]
[1]; [3]
  Model (most probable kinetic mechanism): Substrate inhibition
[2]; [3]
  Model (most probable kinetic mechanism): Substrate inhibition

## O=C(NC12CC3CC(CC(C3)C1)C2)c1nn(CCCCCO)c2ccccc12 [5OH-APINACA]
[1]; [4]
  Model (most probable kinetic mechanism): Michaelis–Menten
[2]; [4]
  Model (most probable kinetic mechanism): Hill
